From the supplement of paper PMC10849652
Some of the results follow.

Protein sequences, listed by entry. Tags and fused reporters are not part of them. Lines headed by an entry give the natural chain unless they say otherwise; changes in a name come on top.
UniProt O60907: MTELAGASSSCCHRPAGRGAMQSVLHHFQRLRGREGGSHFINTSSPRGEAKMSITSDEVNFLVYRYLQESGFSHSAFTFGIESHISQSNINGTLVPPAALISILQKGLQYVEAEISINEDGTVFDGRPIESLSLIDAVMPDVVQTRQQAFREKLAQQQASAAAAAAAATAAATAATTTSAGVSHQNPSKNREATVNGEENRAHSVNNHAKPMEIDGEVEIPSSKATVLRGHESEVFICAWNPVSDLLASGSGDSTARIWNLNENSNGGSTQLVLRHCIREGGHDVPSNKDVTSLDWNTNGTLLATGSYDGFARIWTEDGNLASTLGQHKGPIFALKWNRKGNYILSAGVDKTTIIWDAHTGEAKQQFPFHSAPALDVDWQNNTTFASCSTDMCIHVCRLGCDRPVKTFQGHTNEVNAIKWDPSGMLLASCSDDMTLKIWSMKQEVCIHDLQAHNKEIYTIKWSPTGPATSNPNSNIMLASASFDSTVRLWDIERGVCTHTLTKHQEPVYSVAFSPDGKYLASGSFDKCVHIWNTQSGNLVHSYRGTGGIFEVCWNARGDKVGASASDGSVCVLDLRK
UniProt Q99426: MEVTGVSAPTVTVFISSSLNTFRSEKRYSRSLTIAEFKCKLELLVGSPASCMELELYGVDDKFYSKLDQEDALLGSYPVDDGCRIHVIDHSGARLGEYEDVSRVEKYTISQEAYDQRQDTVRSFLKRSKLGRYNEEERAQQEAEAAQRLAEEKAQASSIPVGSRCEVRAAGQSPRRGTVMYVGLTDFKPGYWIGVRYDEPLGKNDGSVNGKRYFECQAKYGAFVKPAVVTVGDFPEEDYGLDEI
UniProt O75347: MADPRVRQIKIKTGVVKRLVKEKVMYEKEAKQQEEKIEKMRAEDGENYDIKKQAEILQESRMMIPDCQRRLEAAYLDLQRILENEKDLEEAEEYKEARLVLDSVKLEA
UniProt Q66K14, whole entry, looked up: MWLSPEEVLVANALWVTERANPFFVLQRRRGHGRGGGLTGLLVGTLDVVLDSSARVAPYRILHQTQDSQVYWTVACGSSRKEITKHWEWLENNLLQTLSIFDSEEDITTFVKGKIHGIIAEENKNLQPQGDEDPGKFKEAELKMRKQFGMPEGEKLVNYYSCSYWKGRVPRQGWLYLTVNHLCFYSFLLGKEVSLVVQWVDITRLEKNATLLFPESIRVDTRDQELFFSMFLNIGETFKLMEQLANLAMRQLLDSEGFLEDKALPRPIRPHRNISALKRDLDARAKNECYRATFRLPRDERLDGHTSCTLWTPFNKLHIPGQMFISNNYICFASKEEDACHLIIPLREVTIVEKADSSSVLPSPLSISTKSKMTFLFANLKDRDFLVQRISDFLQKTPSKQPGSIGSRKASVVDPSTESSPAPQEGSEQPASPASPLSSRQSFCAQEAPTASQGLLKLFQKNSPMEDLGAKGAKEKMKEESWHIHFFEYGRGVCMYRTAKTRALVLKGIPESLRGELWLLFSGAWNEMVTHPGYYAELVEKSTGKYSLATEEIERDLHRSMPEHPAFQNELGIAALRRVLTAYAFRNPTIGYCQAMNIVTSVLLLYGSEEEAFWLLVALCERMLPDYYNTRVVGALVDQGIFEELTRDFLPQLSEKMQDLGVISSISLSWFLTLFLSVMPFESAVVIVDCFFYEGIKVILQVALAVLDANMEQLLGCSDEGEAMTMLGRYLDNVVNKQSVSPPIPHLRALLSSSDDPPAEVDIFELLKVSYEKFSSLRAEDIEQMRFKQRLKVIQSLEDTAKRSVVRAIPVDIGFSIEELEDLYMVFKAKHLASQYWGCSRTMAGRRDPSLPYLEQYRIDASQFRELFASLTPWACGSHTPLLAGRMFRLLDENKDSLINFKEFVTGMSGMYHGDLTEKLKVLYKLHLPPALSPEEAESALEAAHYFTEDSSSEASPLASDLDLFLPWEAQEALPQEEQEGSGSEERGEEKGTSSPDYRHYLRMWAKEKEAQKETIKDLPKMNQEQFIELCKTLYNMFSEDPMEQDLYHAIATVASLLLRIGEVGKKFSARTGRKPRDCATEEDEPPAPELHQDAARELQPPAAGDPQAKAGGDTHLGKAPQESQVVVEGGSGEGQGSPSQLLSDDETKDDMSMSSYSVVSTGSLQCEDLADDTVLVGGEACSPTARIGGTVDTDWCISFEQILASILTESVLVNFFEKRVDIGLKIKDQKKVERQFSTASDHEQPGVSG
UniProt Q00059: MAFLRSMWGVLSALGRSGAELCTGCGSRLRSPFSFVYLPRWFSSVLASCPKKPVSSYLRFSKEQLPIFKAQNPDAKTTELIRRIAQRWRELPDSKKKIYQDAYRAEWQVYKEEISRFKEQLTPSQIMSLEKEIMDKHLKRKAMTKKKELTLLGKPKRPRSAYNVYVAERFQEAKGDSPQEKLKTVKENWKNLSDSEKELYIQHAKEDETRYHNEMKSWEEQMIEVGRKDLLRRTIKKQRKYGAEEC
UniProt Q15545, whole entry, looked up: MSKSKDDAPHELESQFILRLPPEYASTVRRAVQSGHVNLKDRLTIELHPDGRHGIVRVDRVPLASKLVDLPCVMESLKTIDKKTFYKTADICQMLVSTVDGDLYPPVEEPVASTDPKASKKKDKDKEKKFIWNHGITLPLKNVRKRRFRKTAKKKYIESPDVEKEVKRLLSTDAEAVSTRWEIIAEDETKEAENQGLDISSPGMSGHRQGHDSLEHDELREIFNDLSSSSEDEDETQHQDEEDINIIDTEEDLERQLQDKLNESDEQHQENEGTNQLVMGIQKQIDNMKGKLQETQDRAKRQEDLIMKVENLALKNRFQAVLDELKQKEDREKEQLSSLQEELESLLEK
UniProt P37802: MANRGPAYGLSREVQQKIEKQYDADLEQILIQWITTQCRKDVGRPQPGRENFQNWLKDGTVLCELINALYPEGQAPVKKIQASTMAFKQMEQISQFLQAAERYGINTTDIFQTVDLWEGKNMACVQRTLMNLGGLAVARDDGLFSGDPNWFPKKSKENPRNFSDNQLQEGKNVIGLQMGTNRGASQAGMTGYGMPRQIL
UniProt Q14186: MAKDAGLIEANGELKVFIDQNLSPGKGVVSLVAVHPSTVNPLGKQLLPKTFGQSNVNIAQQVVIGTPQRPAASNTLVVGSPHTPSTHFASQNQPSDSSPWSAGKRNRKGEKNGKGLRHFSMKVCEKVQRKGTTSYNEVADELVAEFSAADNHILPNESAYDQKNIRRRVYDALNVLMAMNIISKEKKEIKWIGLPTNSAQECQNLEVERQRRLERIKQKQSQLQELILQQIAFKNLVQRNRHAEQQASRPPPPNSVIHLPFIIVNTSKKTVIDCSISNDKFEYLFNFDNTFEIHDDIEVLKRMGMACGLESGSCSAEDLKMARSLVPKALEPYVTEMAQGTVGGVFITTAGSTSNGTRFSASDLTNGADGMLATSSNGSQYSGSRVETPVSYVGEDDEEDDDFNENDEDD
UniProt P02786, whole entry, looked up: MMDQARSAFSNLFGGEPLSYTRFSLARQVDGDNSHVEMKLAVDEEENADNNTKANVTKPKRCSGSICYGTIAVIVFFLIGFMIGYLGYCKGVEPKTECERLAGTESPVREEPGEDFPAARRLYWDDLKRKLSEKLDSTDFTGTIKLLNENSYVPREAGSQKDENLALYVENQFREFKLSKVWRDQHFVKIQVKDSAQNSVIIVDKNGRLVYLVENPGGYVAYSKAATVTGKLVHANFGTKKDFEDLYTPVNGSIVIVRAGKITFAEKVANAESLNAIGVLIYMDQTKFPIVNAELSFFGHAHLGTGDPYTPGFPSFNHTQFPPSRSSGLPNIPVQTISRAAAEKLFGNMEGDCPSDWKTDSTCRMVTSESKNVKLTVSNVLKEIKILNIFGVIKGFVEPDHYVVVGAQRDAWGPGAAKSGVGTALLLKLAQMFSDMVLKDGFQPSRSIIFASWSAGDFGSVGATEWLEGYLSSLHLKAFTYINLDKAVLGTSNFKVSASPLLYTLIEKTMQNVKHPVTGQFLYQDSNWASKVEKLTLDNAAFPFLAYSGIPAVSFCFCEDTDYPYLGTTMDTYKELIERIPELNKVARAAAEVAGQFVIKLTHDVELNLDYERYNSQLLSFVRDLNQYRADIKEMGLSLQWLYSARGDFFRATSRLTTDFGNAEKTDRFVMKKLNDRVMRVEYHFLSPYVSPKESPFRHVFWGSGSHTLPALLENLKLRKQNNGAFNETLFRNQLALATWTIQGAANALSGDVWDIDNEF
UniProt Q5JUR7: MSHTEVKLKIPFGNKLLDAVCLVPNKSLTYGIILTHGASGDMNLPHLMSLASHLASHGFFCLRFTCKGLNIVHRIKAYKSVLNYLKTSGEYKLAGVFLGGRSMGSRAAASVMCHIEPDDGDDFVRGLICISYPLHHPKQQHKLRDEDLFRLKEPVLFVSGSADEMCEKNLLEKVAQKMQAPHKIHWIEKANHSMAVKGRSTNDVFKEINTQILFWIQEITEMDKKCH
UniProt A2RTX5: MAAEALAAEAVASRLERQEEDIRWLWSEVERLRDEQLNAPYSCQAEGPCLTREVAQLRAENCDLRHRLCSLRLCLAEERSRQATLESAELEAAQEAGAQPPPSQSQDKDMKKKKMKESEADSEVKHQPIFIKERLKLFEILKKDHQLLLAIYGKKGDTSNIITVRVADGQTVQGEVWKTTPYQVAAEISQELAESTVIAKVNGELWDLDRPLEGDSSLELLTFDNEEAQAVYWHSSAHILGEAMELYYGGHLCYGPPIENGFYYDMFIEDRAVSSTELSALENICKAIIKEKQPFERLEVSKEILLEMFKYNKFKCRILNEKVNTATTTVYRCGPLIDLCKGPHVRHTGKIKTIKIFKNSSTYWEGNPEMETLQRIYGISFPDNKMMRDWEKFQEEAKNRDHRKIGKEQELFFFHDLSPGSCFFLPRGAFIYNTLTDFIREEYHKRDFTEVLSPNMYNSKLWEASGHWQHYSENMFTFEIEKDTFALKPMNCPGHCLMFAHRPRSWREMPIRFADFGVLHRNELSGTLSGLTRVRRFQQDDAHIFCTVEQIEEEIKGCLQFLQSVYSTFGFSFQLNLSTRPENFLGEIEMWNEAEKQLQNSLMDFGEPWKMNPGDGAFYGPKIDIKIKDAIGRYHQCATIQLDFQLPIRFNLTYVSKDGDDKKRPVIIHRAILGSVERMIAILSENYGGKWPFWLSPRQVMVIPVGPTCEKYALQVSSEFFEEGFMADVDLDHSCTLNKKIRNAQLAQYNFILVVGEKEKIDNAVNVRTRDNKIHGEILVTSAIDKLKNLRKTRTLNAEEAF
UniProt Q9NXF1: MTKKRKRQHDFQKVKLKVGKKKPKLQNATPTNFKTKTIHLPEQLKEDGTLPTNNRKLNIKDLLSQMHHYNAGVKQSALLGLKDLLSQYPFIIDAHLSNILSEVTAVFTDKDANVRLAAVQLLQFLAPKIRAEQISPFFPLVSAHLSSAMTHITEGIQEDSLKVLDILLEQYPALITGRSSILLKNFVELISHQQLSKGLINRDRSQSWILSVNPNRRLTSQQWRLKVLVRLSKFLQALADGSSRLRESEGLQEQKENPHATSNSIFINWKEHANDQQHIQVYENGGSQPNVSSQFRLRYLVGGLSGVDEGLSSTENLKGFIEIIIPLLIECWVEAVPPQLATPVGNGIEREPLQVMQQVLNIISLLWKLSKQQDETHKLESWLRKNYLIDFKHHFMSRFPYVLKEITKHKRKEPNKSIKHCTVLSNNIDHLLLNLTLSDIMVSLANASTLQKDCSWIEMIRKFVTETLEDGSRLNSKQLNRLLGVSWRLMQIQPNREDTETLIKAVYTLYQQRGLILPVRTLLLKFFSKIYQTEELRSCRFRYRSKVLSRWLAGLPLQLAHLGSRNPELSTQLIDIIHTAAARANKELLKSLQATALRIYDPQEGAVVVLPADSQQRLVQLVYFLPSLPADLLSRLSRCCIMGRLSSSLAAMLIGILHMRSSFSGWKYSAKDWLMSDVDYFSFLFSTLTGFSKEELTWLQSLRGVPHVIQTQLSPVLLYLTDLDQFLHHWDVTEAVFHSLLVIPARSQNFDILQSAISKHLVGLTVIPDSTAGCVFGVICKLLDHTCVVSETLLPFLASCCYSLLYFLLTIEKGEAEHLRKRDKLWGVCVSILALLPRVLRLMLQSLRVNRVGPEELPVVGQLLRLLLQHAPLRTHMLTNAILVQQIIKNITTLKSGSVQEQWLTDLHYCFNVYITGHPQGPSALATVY

Tests used:
Experiment in all cases: log2 fold change, soluble protein after heating vs DMSO (PISA); higher = thermal stabilisation; K562 lysate, 10 uM; active = over 0.2 and 3.5 SD of the protein, either way, in both replicates (recomputed)
vemurafenib = compound: CCCS(=O)(=O)Nc1ccc(F)c(C(=O)c2c[nH]c3ncc(-c4ccc(Cl)cc4)cc23)c1F [vemurafenib]
In short: (§1)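 K562 pellets were dounce-homogenised in PBS pH 7.4 containing 1 mM MgCl2, and the crude extract, at 1 mg/mL protein, was exposed to 10 μM compound for 30 min. Aliquots were heated for 3 min across 48°C-58°C, pooled, brought to 0.5% NP-40 at 4°C and spun at 21,000xg for 90 min, with the supernatant taken as soluble protein. TMTpro 16plex LC-MS/MS with equalised channel sums quantified that protein. Values are log-two fold changes in thermal stability relative to solvent controls, taken from duplicates.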

[1] = compound: CCCS(=O)(=O)Nc1ccc(F)c(C(=O)c2c[nH]c3ncc(Cl)cc23)c1F
In short: as §1

barasertib = compound: CCN(CCCOc1ccc2c(Nc3cc(CC(=O)Nc4cccc(F)c4)[nH]n3)ncnc2c1)CCOP(=O)(O)O [barasertib]
In short: as §1

[2] = compound: CC[C@@H]1C(=O)N(C)c2cnc(Nc3ccc(C(=O)NC4CCN(C)CC4)cc3OC)nc2N1C1CCCC1
In short: as §1

volasertib = compound: CC[C@@H]1C(=O)N(C)c2cnc(Nc3ccc(C(=O)N[C@H]4CC[C@H](N5CCN(CC6CC6)CC5)CC4)cc3OC)nc2N1C(C)C [volasertib]
In short: as §1

[3] = compound: CCn1c(C(=O)N(C2CC2)C2CC2)cc2c3c(ncn3C)c(Nc3cc(C)n(C)n3)nc21
In short: as §1

[4] = compound: CCn1cc(-c2ccnc3[nH]c(-c4cccc(CN(C)C)c4)cc23)c(-c2ccc(NC(=O)N(C)C)cc2)n1
In short: as §1

[5] = compound: CN1CCC(CNc2ccc3ncc(-c4cccc(OC(F)(F)F)c4)n3n2)CC1
In short: as §1

saracatinib = compound: CN1CCN(CCOc2cc(OC3CCOCC3)c3c(Nc4c(Cl)ccc5c4OCO5)ncnc3c2)CC1 [saracatinib]
In short: as §1

sotrastaurin = compound: CN1CCN(c2nc(C3=C(c4c[nH]c5ccccc45)C(=O)NC3=O)c3ccccc3n2)CC1 [sotrastaurin]
In short: as §1

alvocidib = compound: CN1CC[C@H](c2c(O)cc(O)c3c(=O)cc(-c4ccccc4Cl)oc23)[C@H](O)C1 [alvocidib]
In short: as §1

Tubastatin A = compound: CN1CCc2c(c3ccccc3n2Cc2ccc(C(=O)NO)cc2)C1 [Tubastatin A]
In short: as §1

[6] = compound: CNC(=O)C1=CC=CC=C1NC2=NC(=NC=C2Cl)NC3=C(C=C(C=C3)N4CCOCC4)OC
In short: as §1

defactinib = compound: CNC(=O)c1ccc(Nc2ncc(C(F)(F)F)c(NCc3nccnc3N(C)S(C)(=O)=O)n2)cc1 [defactinib]
In short: as §1

[7] = compound: CNc1nc(-c2ccc3c(N)n[nH]c3c2)cc(N2C[C@@H](C(=O)NC3CCCCC3)CC[C@H]2C)n1
In short: as §1

encorafenib = compound: COC(=O)N[C@@H](C)CNc1nccc(-c2cn(C(C)C)nc2-c2cc(Cl)cc(NS(C)(=O)=O)c2F)n1 [encorafenib]
In short: as §1

[8] = compound: COC(=O)[C@H](CCSC)NC(=O)C1=C(C=C(C=C1)NC[C@H](CS)N)C2=CC=CC=C2
In short: as §1

alisertib = compound: COc1cc(Nc2ncc3c(n2)-c2ccc(Cl)cc2C(c2c(F)cccc2OC)=NC3)ccc1C(=O)O [alisertib]
In short: as §1

[9] = compound: COc1cc2nc(-c3cc(F)ccc3O)nc(N[C@@H]3CNC[C@H]3C(C)(C)O)c2cc1OC
In short: as §1

gefitinib = compound: COc1cc2ncnc(Nc3ccc(F)c(Cl)c3)c2cc1OCCCN1CCOCC1 [gefitinib]
In short: as §1

Measured: log2 fold change

TBC1D2B (UniProt Q9UPU7)
inactive: vemurafenib 0.037 | [1] 0.014 | barasertib 0.001 | [2] 0.012 | volasertib -0.099 | [3] -0.018 | [4] 0.004 | [5] -0.041 | saracatinib 0.033 | sotrastaurin 0.062 | alvocidib -0.023 | Tubastatin A -0.157 | [6] 0.038 | defactinib 0.04 | [7] -0.047 | encorafenib 0.03 | [8] 0.063 | alisertib 0.011 | [9] 0.103 | gefitinib -0.001

TBL1X (UniProt O60907)
inactive: vemurafenib -0.004 | [1] -0.006 | barasertib 0.012 | [2] 0.016 | volasertib 0.021 | [3] 0.068 | [4] -0.085 | [5] 0.11 | saracatinib 0 | sotrastaurin 0.017 | alvocidib 0 | Tubastatin A -0.111 | [6] -0.019 | defactinib 0.016 | [7] -0.134 | encorafenib -0.007 | [8] -0.03 | alisertib 0.015 | [9] 0.014 | gefitinib -0.008

TBCB (UniProt Q99426)
inactive: vemurafenib -0.014 | [1] -0.012 | barasertib -0.059 | [2] 0.012 | volasertib 0.012 | [3] -0.001 | [4] -0.101 | [5] 0.046 | saracatinib -0.003 | sotrastaurin -0.002 | alvocidib -0.057 | Tubastatin A -0.02 | [6] -0.011 | defactinib 0.001 | [7] -0.061 | encorafenib 0.002 | [8] -0.116 | alisertib -0.048 | [9] 0.011 | gefitinib 0.024

TBCA (UniProt O75347)
inactive: vemurafenib -0.03 | [1] -0.023 | barasertib -0.009 | [2] -0.054 | volasertib 0.019 | [3] 0.05 | [4] 0.021 | [5] 0.031 | saracatinib -0.07 | sotrastaurin -0.014 | alvocidib 0.014 | Tubastatin A 0.016 | [6] -0.093 | defactinib -0.017 | [7] -0.024 | encorafenib -0.033 | [8] -0.048 | alisertib -0.01 | [9] -0.002 | gefitinib -0.021

TBC1D9B isoform 2 (UniProt Q66K14)
inactive: vemurafenib 0.027 | [1] 0.011 | barasertib 0.05 | [2] 0.039 | volasertib 0.002 | [3] -0.089 | [4] -0.082 | [5] 0.057 | saracatinib 0.01 | sotrastaurin -0.009 | alvocidib -0.086 | Tubastatin A 0 | [6] -0.039 | defactinib 0.039 | [7] 0.046 | encorafenib 0.03 | [8] -0.037 | alisertib 0.03 | [9] 0.098 | gefitinib 0.027

TFAM (UniProt Q00059)
inactive: vemurafenib -0.004 | [1] -0.002 | barasertib -0.021 | [2] 0.032 | volasertib 0.014 | [3] 0.015 | [4] 0.041 | [5] -0.177 | saracatinib 0.016 | sotrastaurin -0.017 | alvocidib 0.015 | Tubastatin A 0.015 | [6] -0.018 | defactinib -0.01 | [7] 0.023 | encorafenib -0.011 | [8] -0.031 | alisertib -0.001 | [9] -0.024 | gefitinib 0.014

TCEA1 (UniProt P23193)
inactive: vemurafenib -0.025 | [1] 0.021 | barasertib -0.053 | [2] 0.042 | volasertib 0.013 | [3] -0.022 | [4] 0.206 | [5] -0.103 | saracatinib -0.006 | sotrastaurin 0.014 | alvocidib 0.016 | Tubastatin A 0.029 | [6] -0.007 | defactinib -0.023 | [7] -0.002 | encorafenib 0.031 | [8] -0.034 | alisertib -0.055 | [9] -0.001 | gefitinib -0.027

TERF2 (UniProt Q15554)
inactive: vemurafenib -0.009 | [1] 0.007 | barasertib 0.003 | [2] -0.025 | volasertib -0.052 | [3] 0.014 | [4] -0.087 | [5] -0.01 | saracatinib 0.031 | sotrastaurin 0.056 | alvocidib 0.004 | Tubastatin A 0.022 | [6] 0.023 | defactinib 0.051 | [7] -0.001 | encorafenib -0.005 | [8] 0.082 | alisertib -0.07 | [9] -0.023 | gefitinib 0.023

TAF7 (UniProt Q15545)
inactive: vemurafenib -0.01 | [1] -0.033 | barasertib -0.022 | [2] -0.031 | volasertib 0.025 | [3] -0.025 | [4] 0.035 | [5] 0.048 | saracatinib 0.006 | sotrastaurin 0.017 | alvocidib -0.011 | Tubastatin A 0.023 | [6] 0 | defactinib 0.025 | [7] -0.006 | encorafenib 0.057 | [8] -0.024 | alisertib 0.016 | [9] -0.028 | gefitinib 0.074

TAGLN2 isoform 2 (UniProt P37802)
inactive: vemurafenib -0.001 | [1] 0 | barasertib 0.099 | [2] 0.039 | volasertib 0.016 | [3] -0.008 | [4] 0.07 | [5] -0.004 | saracatinib 0.009 | sotrastaurin -0.02 | alvocidib 0.012 | Tubastatin A 0.027 | [6] 0.006 | defactinib 0.024 | [7] 0.004 | encorafenib -0.015 | [8] -0.112 | alisertib -0.008 | [9] -0.005 | gefitinib -0.032

TFDP1 (UniProt Q14186)
inactive: vemurafenib 0.125 | [1] 0.011 | barasertib 0.061 | [2] -0.01 | volasertib -0.007 | [3] 0.055 | [4] 0.004 | [5] -0.043 | saracatinib 0.025 | sotrastaurin -0.017 | alvocidib -0.02 | Tubastatin A -0.042 | [6] -0.028 | defactinib 0.076 | [7] 0.125 | encorafenib 0.069 | [8] -0.133 | alisertib 0.043 | [9] 0.018 | gefitinib -0.039

TFRC (UniProt P02786)
inactive: vemurafenib -0.007 | [1] -0.015 | barasertib -0.028 | [2] -0.002 | volasertib 0.024 | [3] -0.012 | [4] -0.023 | [5] 0.051 | saracatinib 0.011 | sotrastaurin 0.003 | alvocidib 0.012 | Tubastatin A 0.022 | [6] 0.009 | defactinib -0.01 | [7] 0.01 | encorafenib -0.001 | [8] -0.017 | alisertib 0.008 | [9] 0.013 | gefitinib 0.017

TEX30 (UniProt Q5JUR7)
inactive: vemurafenib 0.008 | [1] 0.033 | barasertib 0.109 | [2] -0.077 | volasertib -0.051 | [3] 0.005 | [4] -0.301 | [5] 0.088 | saracatinib -0.011 | sotrastaurin -0.023 | alvocidib -0.021 | Tubastatin A -0.066 | [6] 0.066 | defactinib -0.097 | [7] 0.07 | encorafenib 0.047 | [8] 0.007 | alisertib 0.101 | [9] 0.041 | gefitinib 0.058

TARSL2 (UniProt A2RTX5)
inactive: vemurafenib -0.006 | [1] -0.007 | barasertib 0.006 | [2] -0.015 | volasertib -0.03 | [3] -0.055 | [4] -0.083 | [5] 0.035 | saracatinib 0.033 | sotrastaurin -0.005 | alvocidib -0.019 | Tubastatin A 0.012 | [6] 0.026 | defactinib 0.014 | [7] 0.034 | encorafenib -0.009 | [8] 0.078 | alisertib -0.028 | [9] 0.017 | gefitinib -0.029

TEX10 (UniProt Q9NXF1)
inactive: vemurafenib 0.034 | [1] 0.031 | barasertib -0.117 | [2] 0.004 | volasertib -0.031 | [3] -0.014 | [4] -0.019 | [5] 0.016 | saracatinib -0.022 | sotrastaurin 0.042 | alvocidib -0.023 | Tubastatin A -0.06 | [6] -0.025 | defactinib -0.031 | [7] 0.031 | encorafenib 0.045 | [8] -0.044 | alisertib 0.063 | [9] -0.072 | gefitinib -0.024

2 successive records already listed, quoted:
TFDP1 (UniProt Q14186)
inactive: vemurafenib 0.125 | [1] 0.011 | barasertib 0.061 | [2] -0.01 | volasertib -0.007 | [3] 0.055 | [4] 0.004 | [5] -0.043 | saracatinib 0.025 | sotrastaurin -0.017 | alvocidib -0.02 | Tubastatin A -0.042 | [6] -0.028 | defactinib 0.076 | [7] 0.125 | encorafenib 0.069 | [8] -0.133 | alisertib 0.043 | [9] 0.018 | gefitinib -0.039

TFRC (UniProt P02786)
inactive: vemurafenib -0.007 | [1] -0.015 | barasertib -0.028 | [2] -0.002 | volasertib 0.024 | [3] -0.012 | [4] -0.023 | [5] 0.051 | saracatinib 0.011 | sotrastaurin 0.003 | alvocidib 0.012 | Tubastatin A 0.022 | [6] 0.009 | defactinib -0.01 | [7] 0.01 | encorafenib -0.001 | [8] -0.017 | alisertib 0.008 | [9] 0.013 | gefitinib 0.017

Carrying on.

TBC1D5 isoform 2 (UniProt Q92609)
inactive: vemurafenib 0.003 | [1] 0.011 | barasertib 0.023 | [2] 0.002 | volasertib -0.061 | [3] 0 | [4] -0.002 | [5] -0.043 | saracatinib -0.002 | sotrastaurin 0.006 | alvocidib 0 | Tubastatin A -0.014 | [6] 0.032 | defactinib 0.009 | [7] 0.043 | encorafenib 0.026 | [8] -0.004 | alisertib -0.013 | [9] -0.005 | gefitinib -0.001
